Reference: US20160347846A1
Results are given in words; binding and its absence hold for the method and conditions named. Some binding calls cover weakened binding; strength is not graded here.

The chains behind the UniProt entries cited, without tags or fusion partners. Where a name states a change or a piece, a line headed by the entry shows the natural chain unless it says otherwise.
UniProt P43488: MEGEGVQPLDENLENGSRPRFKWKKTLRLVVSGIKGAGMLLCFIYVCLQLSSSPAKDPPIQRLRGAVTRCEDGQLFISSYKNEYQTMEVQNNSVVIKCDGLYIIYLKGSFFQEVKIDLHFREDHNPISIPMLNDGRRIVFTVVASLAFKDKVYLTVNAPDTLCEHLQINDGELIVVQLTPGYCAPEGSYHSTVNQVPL

Molecular target: T1, mouse OX40 (mouse) (UniProt P47741)
T1 sequence (looked up): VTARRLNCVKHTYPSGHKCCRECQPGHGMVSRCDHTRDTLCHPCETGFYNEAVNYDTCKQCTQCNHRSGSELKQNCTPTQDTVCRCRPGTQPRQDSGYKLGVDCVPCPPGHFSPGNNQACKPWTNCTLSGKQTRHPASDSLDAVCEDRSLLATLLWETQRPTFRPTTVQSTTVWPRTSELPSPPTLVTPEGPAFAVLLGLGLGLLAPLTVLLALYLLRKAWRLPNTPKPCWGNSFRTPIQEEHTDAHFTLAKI
Experiment: flow cytometry on 293T cells expressing mouse OX40, MFI against protein concentration

binding: binds
Substance: hFcγ1•OX40L (T) (from UniProt P43488 49-198) (Fc fusion)
